The values that follow come from PubChem BioAssay AID2685 (National Center for Advancing Translational Sciences (NCATS), 2010).

A short description of this test: qHTS Assay for Lipid Storage Modulators in Drosophila S3 Cells.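 For cell number change: cells counted by Cell Tracker Red CMTPX staining in the red channel.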 The note with it: BODIPY lipid droplet fluorescence, 18-24 h; for cell number change: measured here: cell count max response, cells fed with added oleic acid. A digest of the protocol: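 Drosophila S3 cells got compounds at several concentrations plus oleic acid (400 uM solution). Laser-scanning cytometry with 488 nm excitation read lipid droplets at 500-530 nm and cells at 575-640 nm. Percent activity was relative to 20 uM Triacsin C.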
(qHTS replaces the single test concentration by a dilution series.)

Where [1] appears, read: measured here: lipid fluorescence (Fed channel) AC50, cells fed with added oleic acid.
Where [2] appears, read: measured here: cell number channel AC50, cells fed with added oleic acid.

Each structure is given as a SMILES string. Some of the results follow. These are further read-outs of the screen, such as a control signal, another cell line or another target. No call is given for them. Compounds called inactive in the main read-out are mostly missing here. Potencies come from curve fits of mixed quality, noted in brackets.

What is called AC50 is the concentration at which the activity in the assay is half-maximal. Read a low AC50 as greater potency.

As to `COc1ccccc1NC(=O)c1ccc(NC(=O)COC(=O)C2CCCO2)cc1` (centres undefined), the AC50 under setting [1] is 2.31 µM [rising, partial curve].
On to `CCC1=Nc2cc(C(=O)NCCN3CCCC3)ccc2Sc2ccc(C)cc21`, for which the cell number change was -1.81%. For the same compound, the AC50 under setting [1] was 2.31 µM [falling, single point].
For `Cc1cc(C=C2C(=O)c3ccccc3C2=O)c(C)n1-c1ccc(Cl)cc1`, the cell number change was -68.6%. Moreover, the half-maximal activity concentration (AC50) under setting [2] was 29.1 µM [falling, single point].
Consider `Cc1cccc(NC(=S)NCCN2CCOCC2)c1`, for which the cell number change was -6.5%. For the same compound, the concentration at half-maximal activity (AC50) under setting [1] is 0.517 µM [falling, single point].
As for `CCOC(=O)c1ccc(-n2c(N)c(C(=O)NCC3CCCO3)sc2=S)cc1` (centres undefined), the cell number change is -2.48%. Moreover, under setting [1], the half-maximal activity concentration (AC50) is 29.1 µM [rising, single point].
As to `Cc1cc(C(=O)CSc2nnc(-c3ccncc3)n2-c2ccccc2)c(C)n1C`, the cell number change was -1.43%.
With `O=C(C/C(=N\NC(=O)c1ccccc1Br)C(F)(F)F)c1cccs1`, the cell number change was -24.4%. Further, the concentration at half-maximal activity (AC50) under setting [1] was 0.651 µM [rising, single point].
Consider `CCN1CCCC1CN(Cc1cc2ccc(C)cc2[nH]c1=O)C(=S)Nc1ccccc1OC` (centres undefined), for which the cell number change is 10.5%. The AC50 under setting [2] was 7.31 µM [falling, partial curve, poor fit].
For the compound `Cc1nnc(SCc2c(Cl)cccc2Cl)n(N)c1=O`, the cell number change turned out to be 39.6%. For the same compound, the half-maximal activity concentration (AC50) under setting [2] was 20.6 µM [rising, single point].
As for `CC(C)(C)C1CCC(=NNC(=O)CN(c2ccccc2)S(C)(=O)=O)CC1` (centres undefined), the cell number change was -23%. For the same compound, the concentration at half-maximal activity (AC50) under setting [1] was 29.1 µM [falling, partial curve, poor fit].
For the compound `CN(C)Cc1cc(O)c(CN(C)C)cc1O`, the cell number change was -60.1%. The half-maximal activity concentration (AC50) under setting [2] was 5.17 µM [falling, partial curve]. Also, the concentration at half-maximal activity (AC50) under setting [1] was 4.61 µM [falling, full curve].
Consider `O=C1CCCC(=O)C1CS(=O)(=O)c1ccccc1`, for which the AC50 under setting [1] was 0.517 µM [falling, single point].
With `CCOc1ccccc1Oc1c(C)oc2c(CN3CCN(C)CC3)c(O)ccc2c1=O`, the cell number change is -2.73%. For the same compound, the half-maximal activity concentration (AC50) under setting [1] is 2.06 µM [rising, single point].
For the compound `Cn1c(=O)c([N+](=O)[O-])c(NCc2ccccc2)c2ccccc21`, the AC50 is 2.31 µM [falling, partial curve] under setting [2] and 4.61 µM [falling, partial curve] under setting [1].
As to `CCCC(=O)NC(=S)Nc1cccc(C(C)=O)c1`, the cell number change amounted to 5.59%.
As for `CCOc1ccc(CCNC(=O)Cn2cccc2C(=O)c2ccccc2)cc1OCC`, the AC50 under setting [1] is 13 µM [falling, partial curve].
Take `Cc1csc(/C(C#N)=N/O)n1`: the cell number change is -0.917%. For the same compound, the half-maximal activity concentration (AC50) under setting [1] is 0.461 µM [rising, partial curve, poor fit].
As to `CCOc1ccc(-c2nc(-c3ccncc3)no2)cc1OCC`, the cell number change turned out to be 22%.
Take `CC(C)c1ccc(NC(=O)C2C3C=CC4(CN(CCCN5CCOCC5)C(=O)C24)O3)cc1` (centres undefined): the cell number change was 10%. Further, the concentration at half-maximal activity (AC50) under setting [1] is 8.2 µM [falling, partial curve, poor fit].
Regarding `CNS(=O)(=O)c1ccc(NC(=O)c2nc3nc(C)cc(C(F)F)n3n2)cc1`, the cell number change amounted to 13.7%. In addition, under setting [1], the AC50 was 1.3 µM [falling, full curve].
As for `CCC1CCCCN1C(=S)NC(=O)c1cccs1` (centres undefined), the concentration at half-maximal activity (AC50) under setting [1] was 0.58 µM [falling, partial curve].
Turning to `Cc1ccc(CN2CCC(C(=O)Nc3ccc(Oc4cccnc4)cc3)CC2)cc1`, the cell number change was -28.7%. Further, under setting [1], the AC50 was 29.1 µM [falling, partial curve, poor fit].
As for `COc1ccccc1NS(=O)(=O)NC(=O)c1cn(C)c2ccccc12`, the cell number change was -10.8%.
Regarding `Cc1nc(SCC(=O)Nc2cccc(Cl)c2)n[nH]1`, the cell number change is 0.934%.
As for `Cc1cc(C)c(-c2csc(NC(=O)C3=COCCO3)n2)cc1C`, the cell number change came to 196%. Moreover, the concentration at half-maximal activity (AC50) under setting [2] is 16.4 µM [rising, single point].
Regarding `COC(=O)Nc1nnc(-c2ccco2)s1`, the cell number change is -23.5%. Also, the half-maximal activity concentration (AC50) under setting [1] was 32.6 µM [falling, single point].
As for `CN(C(=O)c1ccc(S(=O)(=O)N2CCCC2)cc1)C1CCS(=O)(=O)C1` (centres undefined), the cell number change is -23%. Besides, the AC50 under setting [1] is 0.0291 µM [falling, full curve, poor fit].
Take `COc1ccc(CC(=O)Nc2ccccc2C(=O)N2CCCC2)cc1`: the cell number change was -11.6%. Besides, the half-maximal activity concentration (AC50) under setting [1] was 1.84 µM [rising, partial curve].
Turning to `O=C(Oc1ccccc1Cl)c1ccccc1P(=O)(O)O`, the cell number change was -11.9%. The AC50 under setting [1] was 0.116 µM [rising, full curve, poor fit].
In the case of `Cc1cccc(-n2ncc3c2CCCC3NC(=O)c2ccc[n+]([O-])c2)c1C` (centres undefined), the cell number change was -20.8%.
As for `COC(=O)CCC(=O)N1CCCC(N2CCN(c3ccc(OC)cc3)CC2)C1` (centres undefined), the cell number change was -11.8%. Further, the AC50 under setting [2] is 0.00651 µM [falling, full curve, poor fit].
In the case of `Cc1c(OCC(=O)NCCCn2ccnc2)ccc2c3c(c(=O)oc12)CCC3`, the cell number change is -31.6%. For the same compound, the concentration at half-maximal activity (AC50) under setting [2] was 29.1 µM [falling, single point].
Take `COc1ccccc1Cn1c(-c2ccccc2OC)nc2ccccc21`: the cell number change was -59.9%. The AC50 under setting [2] is 13 µM [falling, single point]. In addition, the concentration at half-maximal activity (AC50) under setting [1] is 29.1 µM [falling, single point].
For the compound `O=C1C(=Cc2ccco2)C(=O)c2ccccc21`, the cell number change turned out to be 9.61%. In addition, the AC50 under setting [2] was 6.51 µM [falling, single point]. For the same compound, the concentration at half-maximal activity (AC50) under setting [1] is 7.31 µM [falling, single point].
With `O=C1OCCC1Sc1nc2ccccc2n1-c1ccccc1` (centres undefined), the cell number change is 30.3%. Besides, under setting [2], the half-maximal activity concentration (AC50) is 9.2 µM [rising, partial curve]. For the same compound, the concentration at half-maximal activity (AC50) under setting [1] is 20.6 µM [rising, partial curve].
`Fc1ccccc1Nc1n[nH]c(=S)s1`: the cell number change was -13%.
As for `COc1ccc(OC)c(NC(=O)Cc2nn(C)c(=O)c3ccccc23)c1`, the cell number change is -20.3%. Also, the concentration at half-maximal activity (AC50) under setting [1] is 29.1 µM [falling, single point].
As for `CCOc1ccccc1NC(=O)CN1CCN(C(=O)C2CCCO2)CC1` (centres undefined), the cell number change is -13.2%. Moreover, the AC50 under setting [1] is 0.82 µM [falling, full curve, poor fit].
Take `O=C(CSc1nnc(-c2ccc(Cl)cc2)n1Cc1ccco1)c1cccs1`: the cell number change is 51.7%. For the same compound, under setting [2], the AC50 was 23.1 µM [rising, single point]. The half-maximal activity concentration (AC50) under setting [1] was 29.1 µM [rising, single point].
In the case of `Cc1cccc(N2CCN(CC(=O)NCC3CCCCC3)CC2)c1C`, the cell number change is -56.8%. Besides, under setting [2], the AC50 was 20.6 µM [falling, single point]. In addition, the concentration at half-maximal activity (AC50) under setting [1] is 23.1 µM [falling, single point].
For `Cc1ccc(S(=O)(=O)Cc2csc(N)n2)cc1`, the cell number change is -4.75%. For the same compound, the AC50 under setting [1] was 20.6 µM [falling, single point].
Consider `COCCNC(=S)N/N=C(\C)c1ccccc1F`, for which the cell number change came out at 34%. Besides, the AC50 under setting [2] is 0.0231 µM [rising, full curve].
For the compound `O=C(c1ccccc1-c1ccccc1)N1CCOCC1`, the cell number change is -36.2%. In addition, under setting [2], the AC50 was 10.3 µM [falling, partial curve, poor fit]. Besides, under setting [1], the AC50 is 3.26 µM [falling, partial curve, poor fit].
`Oc1c(N=NC(=S)Nc2ccccc2F)c2ccccc2n1Cc1cccc(Cl)c1`: the cell number change was -31.4%. For the same compound, the AC50 under setting [2] was 16.4 µM [falling, single point]. Moreover, the half-maximal activity concentration (AC50) under setting [1] is 16.4 µM [falling, single point].
Take `COC(=O)C(N)Cc1ccc(OC)c([N+](=O)[O-])c1` (centres undefined): the cell number change is 11.4%. Further, under setting [1], the AC50 was 0.259 µM [rising, single point].
Regarding `CC1CC(C)CN(C(=O)CSc2nnc(-c3ccc(Cl)cc3)o2)C1` (centres undefined), the cell number change is -2.62%.
Turning to `CC(=O)N(c1nc(/C=C\C(=O)O)cs1)c1ccccc1F`, the cell number change is -5.9%. Moreover, the AC50 under setting [1] is 0.0517 µM [falling, full curve, poor fit].
With `COC(=O)c1c(NC(=O)CN2CCC(C)CC2)c2c(C)cccc2n1C`, the cell number change is -14.4%. Also, under setting [2], the AC50 is 0.146 µM [rising, full curve, poor fit]. Further, the AC50 under setting [1] was 6.51 µM [rising, single point].
Consider `COC(=O)c1cc2ccsc2n1CC(=O)Nc1cc(Cl)ccc1OC`, for which the cell number change was -73.7%. Moreover, the concentration at half-maximal activity (AC50) under setting [2] was 29.1 µM [falling, single point].
Consider `COc1cc(C)c(CN2CCN(CC(=O)Nc3ccccc3C(=O)NC3CC3)CC2)cc1OC`, for which the cell number change is 2.59%. In addition, the AC50 under setting [1] was 14.6 µM [rising, partial curve, poor fit].
As to `Cc1cccc(C)c1OCC(=O)Nc1ncn[nH]1`, the cell number change turned out to be 13.1%. Moreover, the concentration at half-maximal activity (AC50) under setting [1] is 25.9 µM [rising, single point].
For `CC(=O)N1CCSc2ccc(S(=O)(=O)Nc3ccc(C)cc3)cc21`, the AC50 under setting [1] was 20.6 µM [falling, partial curve].
On to `Cc1ccc2c(c1)C(=C(C#N)C#N)C(=O)N2CCN1CCCCC1`, for which the cell number change was found to be 2.65%.
Turning to `CCOC(=O)c1c(C)[nH]c(C)c1C(=O)COC(=O)[C@@H]1CCCN1S(=O)(=O)c1ccc(Cl)cc1`, the cell number change is -14.1%.
For `O=C(N/N=C/c1ccc(OCCCF)cc1)c1cc(OCC(F)(F)F)ccc1OCC(F)(F)F`, the cell number change is -20.3%. Moreover, the AC50 under setting [1] was 11.6 µM [falling, partial curve].
As for `CCC(=O)Nc1nnc(S(=O)(=O)N(C)c2ccccc2)s1`, under setting [1], the concentration at half-maximal activity (AC50) is 6.51 µM [rising, single point].
Turning to `CC(NC(=O)COC(=O)CCc1nc2ccccc2c(=O)[nH]1)c1ccccc1` (centres undefined), the cell number change amounted to 43.8%. For the same compound, the concentration at half-maximal activity (AC50) under setting [2] was 29.1 µM [rising, single point]. Moreover, the AC50 under setting [1] is 29.1 µM [rising, single point].
Regarding `CC(=O)Nc1ccc(-c2csc(NC(=O)CCCc3cccs3)n2)cc1`, the cell number change is -7.69%.
As for `COc1ccc(NC(=O)C(CCS(C)(=O)=O)N2C(=O)c3ccccc3C2=O)cc1` (centres undefined), the cell number change is -80.7%. Further, the half-maximal activity concentration (AC50) under setting [2] is 16.4 µM [falling, partial curve].
As to `CCC1CCCCN1CCCNC(=O)C1CC(=O)N(CCc2ccccc2)C1` (centres undefined), the cell number change was -11%. In addition, the concentration at half-maximal activity (AC50) under setting [1] is 0.82 µM [rising, full curve, poor fit].
For `CC1CC(=O)N(CC(=O)Nc2ccccc2F)c2ccccc2S1(=O)=O` (centres undefined), the cell number change was found to be 83.3%. For the same compound, the AC50 under setting [2] was 18.4 µM [rising, single point]. Moreover, the AC50 under setting [1] is 23.1 µM [rising, single point].
For `CS(=O)(=O)c1ccc(NC(=O)C2CC(=O)N(c3ccc4c(c3)OCCO4)C2)cc1` (centres undefined), the cell number change is 7.26%. Besides, the AC50 under setting [2] is 0.411 µM [falling, full curve, poor fit]. For the same compound, the AC50 under setting [1] is 0.326 µM [falling, full curve].
